# Experimental data: patent publication US20160201132A1, “GENE EXPRESSION BIOMARKERS OF LAQUINIMOD RESPONSIVENESS” (Teva Pharmaceutical Industries Ltd., priority 2013, published 2016)
# Further values from the same series stand in other lists.
# Test system: PBMC of RRMS patients
# Experiment: Gene expression microarray analysis (HG-U133A-2) of PBMC from RRMS patients treated with LAQ, ancillary study to ALLEGRO
# Type: in vivo, human
# Text: The goal of this ancillary study was to characterize gene expression changes and corresponding biological mechanisms induced in PBMC of RRMS patients by LAQ treatment. According to ALLEGRO clinical trial inclusion criteria, 25 patients were randomly assigned to receive LAQ (n=13, age 38.8±2.3 years, female/male ratio: 8/5) or placebo (n=12, age 37.2±3.4 years, female/male ratio: 8/4).
# Peripheral blood samples were obtained from RRMS patients at baseline before start of LAQ treatment or placebo, after 0, 1, 6 and 24 month of treatment (visit 0, 1, 6 and 7 according to ALLEGRO clinical trial protocol correspondently) for gene microarray analysis.
# Briefly, 1) Peripheral blood mononuclear cells (PBMC) were obtained from RRMS patients that participated in ALLEGRO and were treated daily with 0.6 mg LAQ or placebo. PBMC were subjected for gene expression analysis (HU-133A-2-Affymatrix arrays) at baseline and at 1 and 6 months of LAQ treatment; 2) Data was analyzed by Partek Genomics Solution software. Most informative genes (MIGs) were defined as those that differentiated between groups with p<0.01. Gene functional annotation, enrichment and pathway analysis were performed by Ingenuity software. For each time point, genes that changed in placebo group were excluded from further analysis; and 3) Verification of LAQ related mechanism was performed by Western blot.
# PBMC were extracted from 15 ml peripheral blood, separated by Ficoll-Hypaque gradient. Total RNA was extracted using both Trizol (Invitrogen, USA) and Phase-Lock-Gel columns (Eppendorf, Germany) including a DNase digestion step. RNA integrity was assessed by RNA Experion automated electrophoresis system (Bio-Rad Laboratories, Hercules, Calif.).
# Probe synthesis using 3 μg total RNA, hybridization, detection, and scanning was performed according to the standard Affymetrix, Inc. USA protocols; cDNA was synthesized using the Two-Cycle cDNA Synthesis Kit (Affymetrix, Inc., USA), and in-vitro transcription performed with the GeneChip IVT Labeling Kit (Affymetrix, Inc., USA). The biotin-labeled IVT-RNA was hybridized to HG-U133A-2 arrays containing 18,400 gene transcripts, each corresponding to 14,500 well-annotated human genes, washed in a GeneChip Fluidics Station 450 (Hewlett Packard, USA, GeneArray-™ scanner G2500A) and scanned according to the manufacturer's protocol (Affymetrix, Inc., USA).
# Data analysis was performed on Partek Genomics Solution software (www.partek.com; Partek Incorporated, St. Louis, Mo.). Expression values were computed from raw CEL files by applying the Robust Multi-Chip Average (RMA) background correction algorithm. RMA correction included: 1) values background correction; 2) quintile normalization; 3) log 2 transformation; and 4) median polish summarization. The ANOVA, Repeated Measures and correlation analysis implicated in Partek software ware applied to evaluate LAQ effects. Most informative genes MIGs were defined as those that differentiated between experimental groups with p<0.01. All p-values were calculated for False Discovery Rate (FDR) multiple test correction at p=0.05.
# Additionally, significance of individual genes was tested by parametric T-test and non parametric Mann-Whitney test using Bootstrapping approach based on repeated permutations of the data with 5% FDR for multiple testing.
# Gene functional annotation, enrichment, and pathway analyses to identify the leading biological pathways that operated under LAQ treatment were performed by Ingenuity Pathways Analysis software (www.ingenuity.com).
# ANOVA analysis was used to compare PBMC gene expression after 1, 6 or 24 month of LAQ treatment with baseline gene expression.
# For each time point inventors performed analysis source of variation in dataset. (FIG. 1). Age, gender and batch effects were considered as confounders regarding LAQ or Placebo related changes. For each time point genes associated with Placebo effect were evaluated and excluded from further analysis. […]
smiles,measurement,setting,value
"CCN(C(=O)c1c(O)c2c(Cl)cccc2n(C)c1=O)c1ccccc1 [LAQ, 5-chloro-N-ethyl-4-hydroxy-1-methyl-2-oxo-N-phenyl-1,2-dihydroquinoline-3-carboxamide]",Fold-Change (1.0 vs. 0.0),"208931_s_at ILF3, one month of treatment vs baseline",−1.148
same,Fold-Change (1.0 vs. 0.0),"208989_s_at KDM2A, one month of treatment vs baseline",−1.106
same,Fold-Change (1.0 vs. 0.0),"209423_s_at PHF20, one month of treatment vs baseline",−1.149
same,Fold-Change (1.0 vs. 0.0),"209586_s_at PRUNE, one month of treatment vs baseline",−1.237
same,Fold-Change (1.0 vs. 0.0),"209651_at TGFB1I1, one month of treatment vs baseline",−1.766
same,Fold-Change (1.0 vs. 0.0),"209767_s_at GP1BB /// SEPT5, one month of treatment vs baseline",−1.471
same,Fold-Change (1.0 vs. 0.0),"209826_at EGFL8 /// PPT2, one month of treatment vs baseline",−1.1054
same,Fold-Change (1.0 vs. 0.0),"209840_s_at LRRN3, one month of treatment vs baseline",1.861
same,Fold-Change (1.0 vs. 0.0),"210074_at CTSL2, one month of treatment vs baseline",−1.243
same,Fold-Change (1.0 vs. 0.0),"210183_x_at PNN, one month of treatment vs baseline",−1.103
same,Fold-Change (1.0 vs. 0.0),"210360_s_at MTSS1, one month of treatment vs baseline",−1.166
same,Fold-Change (1.0 vs. 0.0),"210988_s_at PRUNE, one month of treatment vs baseline",−1.301
same,Fold-Change (1.0 vs. 0.0),"211026_s_at MGLL, one month of treatment vs baseline",−1.603
same,Fold-Change (1.0 vs. 0.0),"211059_s_at GOLGA2, one month of treatment vs baseline",−1.144
same,Fold-Change (1.0 vs. 0.0),"211154_at THPO, one month of treatment vs baseline",−1.117
same,Fold-Change (1.0 vs. 0.0),"211334_at MRE11A, one month of treatment vs baseline",−1.122
same,Fold-Change (1.0 vs. 0.0),"211449_at MSH6, one month of treatment vs baseline",−1.114
same,Fold-Change (1.0 vs. 0.0),"211522_s_at GNRHR, one month of treatment vs baseline",−1.121
same,Fold-Change (1.0 vs. 0.0),"211567_at (no gene symbol), one month of treatment vs baseline",−1.126
same,Fold-Change (1.0 vs. 0.0),"211728_s_at HYAL3, one month of treatment vs baseline",−1.168
same,Fold-Change (1.0 vs. 0.0),"211858_x_at GNAS, one month of treatment vs baseline",−1.136
same,Fold-Change (1.0 vs. 0.0),"211982_x_at XPO6, one month of treatment vs baseline",−1.073
same,Fold-Change (1.0 vs. 0.0),"212151_at PBX1, one month of treatment vs baseline",−1.5597
same,Fold-Change (1.0 vs. 0.0),"212692_s_at LRBA, one month of treatment vs baseline",−1.1862
same,Fold-Change (1.0 vs. 0.0),"212742_at RNF115, one month of treatment vs baseline",−1.091
same,Fold-Change (1.0 vs. 0.0),"213046_at PABPN1, one month of treatment vs baseline",−1.1431
same,Fold-Change (1.0 vs. 0.0),"213236_at SASH1, one month of treatment vs baseline",1.905
same,Fold-Change (1.0 vs. 0.0),"213306_at MPDZ, one month of treatment vs baseline",−1.102
same,Fold-Change (1.0 vs. 0.0),"213431_x_at SFI1, one month of treatment vs baseline",−1.069
same,Fold-Change (1.0 vs. 0.0),"213598_at (no gene symbol), one month of treatment vs baseline",−1.221
same,Fold-Change (1.0 vs. 0.0),"213746_s_at FLNA, one month of treatment vs baseline",−1.164
same,Fold-Change (1.0 vs. 0.0),"213765_at MFAP5, one month of treatment vs baseline",−1.092
same,Fold-Change (1.0 vs. 0.0),"213828_x_at H3F3A /// H3F3B /// LOC440926, one month of treatment vs baseline",−1.097
same,Fold-Change (1.0 vs. 0.0),"213864_s_at NAP1L1, one month of treatment vs baseline",−1.139
same,Fold-Change (1.0 vs. 0.0),"213908_at WHAMML1 /// WHAMML2, one month of treatment vs baseline",−1.37
same,Fold-Change (1.0 vs. 0.0),"214308_s_at HGD, one month of treatment vs baseline",−1.648
same,Fold-Change (1.0 vs. 0.0),"214369_s_at RASGRP2, one month of treatment vs baseline",−1.106
same,Fold-Change (1.0 vs. 0.0),"214514_at MCM3AP, one month of treatment vs baseline",−1.132
same,Fold-Change (1.0 vs. 0.0),"214577_at MAP1B, one month of treatment vs baseline",−1.148
same,Fold-Change (1.0 vs. 0.0),"214917_at PRKAA1, one month of treatment vs baseline",−1.173
same,Fold-Change (1.0 vs. 0.0),"214938_x_at HMGB1, one month of treatment vs baseline",−1.084
same,Fold-Change (1.0 vs. 0.0),"214958_s_at TMC6, one month of treatment vs baseline",−1.125
same,Fold-Change (1.0 vs. 0.0),"215101_s_at CXCL5, one month of treatment vs baseline",−1.667
same,Fold-Change (1.0 vs. 0.0),"215122_at TBX6, one month of treatment vs baseline",−1.145
same,Fold-Change (1.0 vs. 0.0),"215306_at (gene symbol not given), one month of treatment",−1.226
same,Fold-Change (1.0 vs. 0.0),"215653_at (no gene symbol), one month of treatment vs baseline",−1.115
same,Fold-Change (1.0 vs. 0.0),"215813_s_at PTGS1, one month of treatment vs baseline",−1.556
same,Fold-Change (1.0 vs. 0.0),"215993_at (gene symbol not given), one month of treatment",−1.075
same,Fold-Change (1.0 vs. 0.0),"216231_s_at B2M, one month of treatment vs baseline",−1.054
same,Fold-Change (1.0 vs. 0.0),"216261_at ITGB3, one month of treatment vs baseline",−1.378
same,Fold-Change (1.0 vs. 0.0),"216463_at (no gene symbol), one month of treatment vs baseline",−1.145
same,Fold-Change (1.0 vs. 0.0),"216513_at DCT, one month of treatment vs baseline",−1.165
same,Fold-Change (1.0 vs. 0.0),"216623_x_at TOX3, one month of treatment vs baseline",−1.098
same,Fold-Change (1.0 vs. 0.0),"216625_at (no gene symbol), one month of treatment vs baseline",−1.101
same,Fold-Change (1.0 vs. 0.0),"216867_s_at PDGFA, one month of treatment vs baseline",−1.3116
same,Fold-Change (1.0 vs. 0.0),"216881_x_at PRB4, one month of treatment vs baseline",−1.117
same,Fold-Change (1.0 vs. 0.0),"216896_at COL4A3, one month of treatment vs baseline",−1.141
same,Fold-Change (1.0 vs. 0.0),"217083_at IGHG1, one month of treatment vs baseline",−1.164
same,Fold-Change (1.0 vs. 0.0),"217335_at FLJ11292, one month of treatment vs baseline",−1.159
same,Fold-Change (1.0 vs. 0.0),"217673_x_at GNAS, one month of treatment vs baseline",−1.132
same,Fold-Change (1.0 vs. 0.0),"217705_at PRKD1, one month of treatment vs baseline",−1.082
same,Fold-Change (1.0 vs. 0.0),"217736_s_at EIF2AK1, one month of treatment vs baseline",−1.235
same,Fold-Change (1.0 vs. 0.0),"217912_at DUS1L, one month of treatment vs baseline",−1.083
same,Fold-Change (1.0 vs. 0.0),"217928_s_at SAPS3, one month of treatment vs baseline",−1.102
same,Fold-Change (1.0 vs. 0.0),"217963_s_at NGFRAP1, one month of treatment vs baseline",−1.41
same,Fold-Change (1.0 vs. 0.0),"218117_at RBX1, one month of treatment vs baseline",−1.1728
same,Fold-Change (1.0 vs. 0.0),"218243_at RUFY1, one month of treatment vs baseline",−1.437
same,Fold-Change (1.0 vs. 0.0),"218704_at RNF43, one month of treatment vs baseline",−1.149
same,Fold-Change (1.0 vs. 0.0),"219202_at RHBDF2, one month of treatment vs baseline",−1.122
same,Fold-Change (1.0 vs. 0.0),"219503_s_at TMEM40, one month of treatment vs baseline",−1.457
same,Fold-Change (1.0 vs. 0.0),"219705_at QSER1, one month of treatment vs baseline",−1.178
same,Fold-Change (1.0 vs. 0.0),"219779_at ZFHX4, one month of treatment vs baseline",−1.167
same,Fold-Change (1.0 vs. 0.0),"219857_at C10orf81, one month of treatment vs baseline",−1.185
same,Fold-Change (1.0 vs. 0.0),"219983_at HRASLS, one month of treatment vs baseline",−1.53
same,Fold-Change (1.0 vs. 0.0),"220094_s_at CCDC90A, one month of treatment vs baseline",−1.32
same,Fold-Change (1.0 vs. 0.0),"220336_s_at GP6, one month of treatment vs baseline",−1.613
same,Fold-Change (1.0 vs. 0.0),"220518_at ABI3BP, one month of treatment vs baseline",−1.134
same,Fold-Change (1.0 vs. 0.0),"220847_x_at ZNF221, one month of treatment vs baseline",1.155
same,Fold-Change (1.0 vs. 0.0),"221160_s_at CABP5, one month of treatment vs baseline",−1.562
same,Fold-Change (1.0 vs. 0.0),"221555_x_at CDC14B, one month of treatment vs baseline",−1.353
same,Fold-Change (1.0 vs. 0.0),"221746_at UBL4A, one month of treatment vs baseline",−1.2092
same,Fold-Change (1.0 vs. 0.0),"221748_s_at TNS1, one month of treatment vs baseline",−1.4944
